Values from PubChem BioAssay AID743121 (NCATS, 2013).

Aim: 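Knock-downs that sensitise breast cancer cells to camptothecin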 (primary screen)
Cells: MDA-MB-231 cells, a human breast cancer line
Knock-down reagent: single siRNA against human genes, 20 nM siRNA (0.8 pmol per well)
Time to read-out: 120 h (drug added 48 h after transfection, read 72 h later)
Conditions: camptothecin 20 nM (about EC30) for 72 h; vehicle 0.1% DMSO in parallel plates
Read-out: 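CellTiter-Glo ATP signal, scaled to control siRNA as percent viability; sensitisation given as log2 of untreated divided by camptothecin-treated viability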
Reading the numbers: log2 vehicle/camptothecin viability: higher = stronger sensitisation to camptothecin
Rule for the call: 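Each gene scored by redundant siRNA activity (RSA) over its individual siRNA ratios; a gene is called active at p < 0.001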
The whole screen tested about 26,000 reagents; shown is an unselected part. Over the whole deposit, 167 (0.63%) were called active. 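Calls are per gene from RSA p-values that are not deposited; an individual active-marked siRNA can sensitise only weakly.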 Unmarked entries are inactive. Reagents against one gene are numbered here. Not all columns of the deposit are shown.

log2 vehicle/camptothecin viability, by gene knocked down and reagent
UBR5 (ubiquitin protein ligase E3 component n-recognin 5): #1 0.132; #2 -0.525; #3 -0.443; #4 -0.0573
H2AZ2 (H2A.Z variant histone 2): #1 -0.276; #2 -0.229; #3 -0.0106; #4 -0.284; #5 0.398; #6 -0.473; #7 -0.337; #8 -0.185
LIG1 (DNA ligase 1): #1 0.204; #2 -0.139; #3 -0.294
GK (glycerol kinase): #1 -0.05; #2 -0.31; #3 -0.226; #4 -0.0388
CD14 (CD14 molecule): #1 -0.269; #2 0.272; #3 -0.0998
STAB1 (stabilin 1): #1 -0.202; #2 0.289; #3 -0.491; #4 -0.386
NPFFR2 (neuropeptide FF receptor 2): #1 -0.203; #2 0.191; #3 -0.282; #4 -0.108
FANCE (FA complementation group E): #1 -0.204; #2 -0.167; #3 -0.251; #4 -0.339
JMJD6: #1 1.74; #2 -0.431; #3 0.32; #4 -0.0191

Laid out differently: 10 of the entries above.
gene knocked down | reagent no. | log2 vehicle/camptothecin viability
H2AZ2 (H2A.Z variant histone 2) | 8 | -0.185
LIG1 (DNA ligase 1) | 1 | 0.204
LIG1 (DNA ligase 1) | 2 | -0.139
LIG1 (DNA ligase 1) | 3 | -0.294
GK (glycerol kinase) | 1 | -0.05
GK (glycerol kinase) | 2 | -0.31
GK (glycerol kinase) | 3 | -0.226
GK (glycerol kinase) | 4 | -0.0388
CD14 (CD14 molecule) | 1 | -0.269
CD14 (CD14 molecule) | 2 | 0.272

The list goes on:
log2 vehicle/camptothecin viability, by gene knocked down and reagent
SHPRH (SNF2 histone linker PHD RING helicase): #1 -0.113; #2 0.0792; #3 -0.204; #4 -0.153
MAMDC4 (MAM domain containing 4): #1 -0.489; #2 -0.529; #3 -0.0766; #4 -0.388
RANBP2 (RAN binding protein 2): #1 0.0277; #2 -0.0233; #3 -0.356; #4 -0.077
HNRNPUL1 (heterogeneous nuclear ribonucleoprotein U like 1): #1 -0.291; #2 -0.607; #3 -0.464; #4 -0.339
FOXO1 (forkhead box O1): #1 0.0798; #2 -0.0329; #3 -0.419; #4 0.0247
SERPINA10 (serpin family A member 10): #1 -0.178; #2 -0.591; #3 -0.271
BCL11B (BCL11 transcription factor B): #1 0.199; #2 -0.36; #3 1.06
TNFSF12 (TNF superfamily member 12): #1 -0.155; #2 -0.168; #3 0.193; #4 -0.5
